Source: paper PMC8881512
These are yes or no findings as the source states them, for the method shown. Binding seen in cells or lysates may run through a third protein. These calls come from enrichment with a bait or labelling near it, and not all partners need be listed.

Target: TurboID conjugated with YAP, P46937
Test: proximity labelling; TurboID with mass spectrometry: MCF-7 cells stably expressing TurboID conjugated with VGLL3, YAP or TurboID-vector, 1 uM biotin for 10 min, lysis in RIPA buffer with sonication, streptavidin-conjugated magnetic beads, on-bead trypsin digestion
Details: remark: other sources report otherwise

binding: binds
B1: MED23, Q9ULK4 1-1368 (protein)
chain: METQLQSIFEEVVKTEVIEEAFPGMFMDTPEDEKTKLISCLGAFRQFWGGLSQESHEQCIQWIVKFIHGQHSPKRISFLYDCLAMAVETGLLPPRLVCESLINSDTLEWERTQLWALTFKLVRKIIGGVDYKGVRDLLKVILEKILTIPNTVSSAVVQQLLAAREVIAYILERNACLLPAYFAVTEIRKLYPEGKLPHWLLGNLVSDFVDTFRPTARINSICGRCSLLPVVNNSGAICNSWKLDPATLRFPLKGLLPYDKDLFEPQTALLRYVLEQPYSRDMVCNMLGLNKQHKQRCPVLEDQLVDLVVYAMERSETEEKFDDGGTSQLLWQHLSSQLIFFVLFQFASFPHMVLSLHQKLAGRGLIKGRDHLMWVLLQFISGSIQKNALADFLPVMKLFDLLYPEKEYIPVPDINKPQSTHAFAMTCIWIHLNRKAQNDNSKLQIPIPHSLRLHHEFLQQSLRNKSLQMNDYKIALLCNAYSTNSECFTLPMGALVETIYGNGIMRIPLPGTNCMASGSITPLPMNLLDSLTVHAKMSLIHSIATRVIKLAHAKSSVALAPALVETYSRLLVYMEIESLGIKGFISQLLPTVFKSHAWGILHTLLEMFSYRMHHIQPHYRVQLLSHLHTLAAVAQTNQNQLHLCVESTALRLITALGSSEVQPQFTRFLSDPKTVLSAESEELNRALILTLARATHVTDFFTGSDSIQGTWCKDILQTIMSFTPHNWASHTLSCFPGPLQAFFKQNNVPQESRFNLKKNVEEEYRKWKSMSNENDIITHFSMQGSPPLFLCLLWKMLLETDHINQIGYRVLERIGARALVAHVRTFADFLVYEFSTSAGGQQLNKCIEILNDMVWKYNIVTLDRLILCLAMRSHEGNEAQVCYFIIQLLLLKPNDFRNRVSDFVKENSPEHWLQNDWHTKHMNYHKKYPEKLYFEGLAEQVDPPVQIQSPYLPIYFGNVCLRFLPVFDIVIHRFLELLPVSKSLETLLDHLGGLYKFHDRPVTYLYNTLHYYEMHLRDRAFLKRKLVHAIIGSLKDNRPQGWCLSDTYLKCAMNAREENPWVPDDTYYCRLIGRLVDTMAGKSPGPFPNCDWRFNEFPNPAAHALHVTCVELMALAVSGKEVGNALLNVVLKSQPLVPRENITAWMNAIGLIITALPEPYWIVLHDRIVSVISSPSLTSETEWVGYPFRLFDFTACHQSYSEMSCSYTLALAHAVWHHSSIGQLSLIPKFLTEVLLPIVKTEFQLLYVYHLVGPFLQRFQQERTRCMIEIGVAFYDMLLNVDQCSTHLNYMDPICDFLYHMKYMFTGDSVKEQVEKIICNLKPALKLRLRFITHISKMEPAAVPPQAMNSGSPAPQSNQVPVSLPVTQ
